# Screening data, single-dose tests

Mtb cholesterol medium: 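Phenotypic screen: M. tuberculosis growth, cholesterol and DPPC medium, 4 days; the read-out is not stated. Concentration: 50 µM. The record gives no direction; compounds that gave an IC50 in retests scored well above the rest, so higher reads as more growth inhibition. About 69,000 compounds were tested under these conditions; 0.54% (about 370) showed 50% or more at least once.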
Mtb glucose medium: 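Phenotypic screen: M. tuberculosis growth, glucose 7H9 medium, 3 days; the read-out is not stated. Tested at 50 µM. Direction is inferred from retests: higher values go with more growth inhibition. Of about 69,000 compounds tested this way, about 760 (1.1%) reached 50% or more in at least one test.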

Results are given as percent effect.
The controls that fix the scale are not given in the record; negative values are as filed.
This is an unselected part of the compounds tested.
Two or more numbers in one place are separate tests of the same structure; such repeats can differ widely.

compound | Mtb cholesterol medium | Mtb glucose medium
CN(C)c1ccc(C(=O)N2C[C@@H](CN3CCCCC3)[C@@H](CO)C2)cc1 | 7.363 & 2.551 | -16.35
CN1CC(=O)N(C2CCCNC2)Cc2c(NC3CCC3)ncnc21 (centres unmarked) | 8.622 | -5.427
Cc1nc(NC2CCCC2)cc(C2CCN2c2ncccn2)n1 (centres unmarked) | 0.4201 | 7.248
O=C(CNC(=O)C1CC1)NCC(F)(F)F | -16.21 | 3.266 & -25.14
COCCN(Cc1ccccc1)C(=O)c1csc(-c2nnc[nH]2)n1 | 2.454 & -2.636 | -13.12
O=C(C[S+]([O-])Cc1csc(C2CCCC2)n1)NC1CCCC1 (centres unmarked) | -5.452 | -10.5
Nc1cc(N2CCCC2c2cnccn2)ncn1 (centres unmarked) | -36.42 | 4.66
CCc1ccc2nc(C)cc(C(=O)N[C@@H]3C[C@@H](CO)N(C)C3)c2c1 | -16.26 | -28.22 & -4.958
O=C(Cc1cccs1)N1CCOC(c2cccc(O)c2)C1 (centres unmarked) | 10.25 | 12.74
COC(=O)CCNC(=O)c1c[nH]cc1-c1ccccc1OC | 7.486 | 13.95
COc1cc(CNCC(O)c2ccccc2)cc2c1OCO2.Cl (centres unmarked) | 0.1237 | -33.03 & -3.742
Cn1ccnc1C1CCN(S(=O)(=O)c2ccc3c(c2)OCCO3)CC1 | 8.993 | 10.05
Cc1nn(C(C)(C)C)c(=O)n1CC(=O)NC(C)(C)C | -0.2879 | -6.878
Cc1cc(-c2ccccc2Cl)nc(N)n1 | 3.045 | -11.3
c1ccc(-c2noc(C3CCN(CCCn4cncn4)CC3)n2)cc1 | 4.254 | -10.47
CC(C)Oc1cccc(CNC(=O)N2CCC(N3CC=CC3)C2)c1 (centres unmarked) | -11.59 | 16.78
N#Cc1cc(Br)ccc1NC1CCN(CC(N)=O)CC1 | 6.988 & 0.1883 | 7.487 & 23.26
CN1CCCN(c2nc3c(cnn3C(C)(C)C)c(=O)[nH]2)CC1 | 5.367 | -13.11
Cc1noc(CN(C)C2CCCN(Cc3noc(C4CC4)n3)C2)n1 (centres unmarked) | -2.206 | -5.422
O=C(C1CC(=O)N(C2CC2)C1)N1CCN(CCn2cccc2)CC1 (centres unmarked) | -1.018 | 0.3706
COCCN1CCCC(c2cncc(Oc3ccccc3OC)n2)C1 (centres unmarked) | 13.45 | 24.47
CN1CCCN(C(=O)c2cccn2-c2ccc3c(c2)OCCO3)CC1 | 10.39 | 0.9083
CCn1c(CN(C)C(C)CSC)nc2c(F)cccc21 (centres unmarked) | 20.02 | 32.5
CC1(CO)COC(Cc2ccc(Cl)cc2)=N1 (centres unmarked) | -17.29 | -13.76 & -28.16
CCOC(=O)c1coc(N2CCC(C(O)CC(C)C)CC2)n1 (centres unmarked) | 4.117 | 12.5
COCCC(=O)NCC1COc2cc(OC)ccc2C1 (centres unmarked) | 13.4 | 29.24
CC(=O)N1CCN(C(=O)Cn2ccc3c(Cl)cccc32)CC1 | -7.777 | -4.612
O=C(O)C(F)(F)F.[H][C@@]12CCCO[C@]1([H])[C@H](N1CCCC1=O)CN(c1nnc(C)s1)C2 | 7.851 | -8.486 & -0.06771
CN(Cc1ccncc1)C1COC2(CCN(Cc3ccsc3)CC2)C1.O=C(O)C(F)(F)F.O=C(O)C(F)(F)F.O=C(O)C(F)(F)F (centres unmarked) | -3.259 | 1.824
CNC(=O)C1CCCCN1C(=O)c1csc(-c2ccc(C)o2)n1 (centres unmarked) | -14.25 | -4.799 & -49.51
Cc1noc(-c2c[nH]nc2C2CCCN2C(=O)c2ccccc2)c1C (centres unmarked) | 53.3 | 3.259
CN(CCN1CCOCC1)C(=O)CCc1cccc(Cl)c1 | -15.79 | -10.92 & -8.809
Cc1cc(-n2c(C)cn(CN(C)Cc3ccccc3)c2=O)no1 | -40.67 | -5.669 & -6.915
CC(C(=O)Nc1ccccc1F)S(C)(=O)=O (centres unmarked) | -6.163 | 9.362
O=C(O)C(F)(F)F.O=C(O)C(F)(F)F.[H][C@@]12CCN(C3CCC3)C[C@]1(C(=O)NCCc1ccccn1)CCO2 | 0.4599 | -4.496
Cc1[nH]/c(=N\C(=O)c2csc(NC3CC3)n2)sc1C | -10.13 | -18.85
CC(C)(C)c1ncc(C(=O)NCCNC(=O)c2ccccc2)s1 | -27.54 | -3.851
CNS(=O)(=O)c1ccc(CN2CCN3CCNC(=O)C3C2)cc1 (centres unmarked) | -3.827 | 10.04 & -13.96
[H][C@@]12C[C@H](C)O[C@]1([H])CCN(C(=O)CCc1ccccc1)C2 | 36.32 & 26.64 | 31.75
O=S(=O)(NCC(O)c1ccc(C(F)(F)F)cc1)C1CC1 (centres unmarked) | -2.66 | -0.2182 & -2.379
O=C(O)C(F)(F)F.c1cnc(N2CC[C@@H](OCC3CC3)[C@@H]2Cc2cccnc2)nc1 | 51.57 | 37.6
COCCC(C)NC(=O)c1cc(Br)c2c(c1)OCCO2 (centres unmarked) | -6.188 | -26.84
COCCO[C@H]1CCN(C(=O)c2ccsc2)[C@H]1Cc1ccncc1 | -11.67 & 7.177 | -4.284
CCCc1nnc(N2CCC3(CCC(=O)N(C)C3)CC2)o1 | -10.53 | 20.39
Cc1nc(C2CCCN(C(=O)c3ccco3)C2)no1 (centres unmarked) | -11.05 | -22.28
Cc1cnn(CC2CN(c3nc4ccccc4o3)CCO2)c1 (centres unmarked) | 24.93 | 20.15
CCC(=O)Nc1ccc(C(C)NC(=O)COCCOC)cc1 (centres unmarked) | -9.84 | 1.179 & 28.28
COc1ccc2[nH]cc(C(=O)CNc3nc(C)cs3)c2c1.I | -13.33 | -22.97 & -0.814
CSc1nccc(N2CCC3(CCCN(Cc4cccc(C)c4)C3)C2)n1 (centres unmarked) | -6.831 | 8.122
O=C(CSCC1CC1)N1CCCC2(CCC(=O)N(CC3CC3)C2)C1 (centres unmarked) | 18.94 | -21.71 & -2.674
COc1cc2c(cc1OC)CN(C(C(=O)O)c1c(C)nn(C)c1C)CC2 (centres unmarked) | -19.23 | -7.701
Cn1cnnc1CNC(=O)c1ccc(Br)cc1O | 2.07 & 15.15 | 5.426
CN(Cc1cccc(F)c1)C(=O)CS(=O)(=O)Cc1c(Cl)cccc1Cl | -0.983 | 14.21 & 28.08
NC(=O)c1csc(N2C[C@@H](CN3CCCCC3)[C@@H](CO)C2)n1 | 1.075 | 17.65
[H][C@@]12C[C@@H](O)CN1C[C@H](Cc1ccccc1)N(Cc1cnc(OC)nc1)C2 | 0.5868 & -35.56 | 0.6683
O=C(O)C(F)(F)F.[H][C@@]12CCN(C(=O)c3ccsc3)[C@]1([H])CCC(=O)N2Cc1ccncc1 | -22.1 | -17.19
CC(C)CCN(C)C(=O)c1cnc2c(cnn2CC(C)C)c1 | -9.139 | 6.345
[H][C@@]12CCCO[C@]1([H])[C@H](NC(=O)c1cscn1)CN2Cc1ccco1 | 10.93 | 3.698

For reference, 5 entries once more:

| compound | Mtb cholesterol medium | Mtb glucose medium |
|---|---|---|
| `COc1cc2c(cc1OC)CN(C(C(=O)O)c1c(C)nn(C)c1C)CC2` (centres unmarked) | -19.23 | -7.701 |
| `Cc1nc(NC2CCCC2)cc(C2CCN2c2ncccn2)n1` (centres unmarked) | 0.4201 | 7.248 |
| `CC(C)Oc1cccc(CNC(=O)N2CCC(N3CC=CC3)C2)c1` (centres unmarked) | -11.59 | 16.78 |
| `[H][C@@]12C[C@@H](O)CN1C[C@H](Cc1ccccc1)N(Cc1cnc(OC)nc1)C2` | 0.5868 & -35.56 | 0.6683 |
| `N#Cc1cc(Br)ccc1NC1CCN(CC(N)=O)CC1` | 6.988 & 0.1883 | 7.487 & 23.26 |

Data taken from ChEMBL document CHEMBL3988442, “University of Dundee, Small-Polar-MMV Screening Library” (2021).